Source: the supplement of paper PMC10849652
Some of the results follow.

Sequences of proteins named here, by UniProt entry; tags and fusion partners are left off. A change or cut given only in a name is not applied to a line headed by its entry.
UniProt Q04837: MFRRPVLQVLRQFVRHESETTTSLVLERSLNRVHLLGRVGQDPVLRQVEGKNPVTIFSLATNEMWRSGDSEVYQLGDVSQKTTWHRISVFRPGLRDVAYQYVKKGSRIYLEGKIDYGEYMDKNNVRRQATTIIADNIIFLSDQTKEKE
UniProt Q9BXP5: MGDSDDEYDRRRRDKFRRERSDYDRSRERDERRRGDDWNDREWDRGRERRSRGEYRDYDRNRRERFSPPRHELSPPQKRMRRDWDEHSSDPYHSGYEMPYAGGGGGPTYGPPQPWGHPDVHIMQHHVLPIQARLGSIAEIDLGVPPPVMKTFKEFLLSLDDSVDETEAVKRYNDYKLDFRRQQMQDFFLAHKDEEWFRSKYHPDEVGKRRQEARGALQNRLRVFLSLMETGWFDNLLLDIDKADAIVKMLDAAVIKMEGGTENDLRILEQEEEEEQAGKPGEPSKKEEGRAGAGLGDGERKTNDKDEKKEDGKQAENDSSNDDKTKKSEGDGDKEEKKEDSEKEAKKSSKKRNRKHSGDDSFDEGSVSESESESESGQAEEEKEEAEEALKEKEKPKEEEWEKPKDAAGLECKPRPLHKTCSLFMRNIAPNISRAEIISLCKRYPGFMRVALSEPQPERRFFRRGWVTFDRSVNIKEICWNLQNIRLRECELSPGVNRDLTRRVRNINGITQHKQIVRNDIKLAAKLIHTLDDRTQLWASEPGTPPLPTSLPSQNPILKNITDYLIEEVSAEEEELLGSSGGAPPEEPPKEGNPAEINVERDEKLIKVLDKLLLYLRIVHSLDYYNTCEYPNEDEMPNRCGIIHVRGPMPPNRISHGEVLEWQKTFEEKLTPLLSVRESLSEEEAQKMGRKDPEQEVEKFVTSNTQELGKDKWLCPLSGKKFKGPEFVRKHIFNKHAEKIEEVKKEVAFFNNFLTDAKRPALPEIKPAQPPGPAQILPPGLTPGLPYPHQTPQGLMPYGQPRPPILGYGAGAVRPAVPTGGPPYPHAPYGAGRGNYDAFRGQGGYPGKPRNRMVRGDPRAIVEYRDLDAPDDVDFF
UniProt P10124: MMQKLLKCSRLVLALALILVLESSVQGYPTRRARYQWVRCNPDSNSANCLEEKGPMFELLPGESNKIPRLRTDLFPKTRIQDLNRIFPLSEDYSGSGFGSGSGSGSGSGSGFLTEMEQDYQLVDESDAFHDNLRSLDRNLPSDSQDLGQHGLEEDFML
UniProt Q13243: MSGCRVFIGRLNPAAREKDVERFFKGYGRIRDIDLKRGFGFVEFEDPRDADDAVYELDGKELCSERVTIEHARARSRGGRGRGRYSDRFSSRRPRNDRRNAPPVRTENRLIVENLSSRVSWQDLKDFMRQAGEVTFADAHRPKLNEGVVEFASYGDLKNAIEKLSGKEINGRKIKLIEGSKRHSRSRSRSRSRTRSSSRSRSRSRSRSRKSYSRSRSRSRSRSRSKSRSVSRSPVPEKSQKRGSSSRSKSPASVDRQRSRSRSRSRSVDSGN
UniProt P31948, whole entry, looked up: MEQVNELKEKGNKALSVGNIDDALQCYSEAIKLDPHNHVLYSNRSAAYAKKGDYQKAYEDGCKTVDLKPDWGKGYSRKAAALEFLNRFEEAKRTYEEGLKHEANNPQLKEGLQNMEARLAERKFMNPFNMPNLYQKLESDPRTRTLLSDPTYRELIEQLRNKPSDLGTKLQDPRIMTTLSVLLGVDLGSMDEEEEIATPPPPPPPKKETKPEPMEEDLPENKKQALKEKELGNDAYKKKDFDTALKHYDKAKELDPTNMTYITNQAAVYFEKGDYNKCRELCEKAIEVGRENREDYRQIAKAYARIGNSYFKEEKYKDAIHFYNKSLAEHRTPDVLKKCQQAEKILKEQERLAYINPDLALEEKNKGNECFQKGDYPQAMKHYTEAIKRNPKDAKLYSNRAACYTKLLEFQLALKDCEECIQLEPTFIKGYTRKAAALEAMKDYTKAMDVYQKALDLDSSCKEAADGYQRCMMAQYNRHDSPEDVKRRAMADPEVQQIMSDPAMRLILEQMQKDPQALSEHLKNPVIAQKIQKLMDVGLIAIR
UniProt Q8NB90: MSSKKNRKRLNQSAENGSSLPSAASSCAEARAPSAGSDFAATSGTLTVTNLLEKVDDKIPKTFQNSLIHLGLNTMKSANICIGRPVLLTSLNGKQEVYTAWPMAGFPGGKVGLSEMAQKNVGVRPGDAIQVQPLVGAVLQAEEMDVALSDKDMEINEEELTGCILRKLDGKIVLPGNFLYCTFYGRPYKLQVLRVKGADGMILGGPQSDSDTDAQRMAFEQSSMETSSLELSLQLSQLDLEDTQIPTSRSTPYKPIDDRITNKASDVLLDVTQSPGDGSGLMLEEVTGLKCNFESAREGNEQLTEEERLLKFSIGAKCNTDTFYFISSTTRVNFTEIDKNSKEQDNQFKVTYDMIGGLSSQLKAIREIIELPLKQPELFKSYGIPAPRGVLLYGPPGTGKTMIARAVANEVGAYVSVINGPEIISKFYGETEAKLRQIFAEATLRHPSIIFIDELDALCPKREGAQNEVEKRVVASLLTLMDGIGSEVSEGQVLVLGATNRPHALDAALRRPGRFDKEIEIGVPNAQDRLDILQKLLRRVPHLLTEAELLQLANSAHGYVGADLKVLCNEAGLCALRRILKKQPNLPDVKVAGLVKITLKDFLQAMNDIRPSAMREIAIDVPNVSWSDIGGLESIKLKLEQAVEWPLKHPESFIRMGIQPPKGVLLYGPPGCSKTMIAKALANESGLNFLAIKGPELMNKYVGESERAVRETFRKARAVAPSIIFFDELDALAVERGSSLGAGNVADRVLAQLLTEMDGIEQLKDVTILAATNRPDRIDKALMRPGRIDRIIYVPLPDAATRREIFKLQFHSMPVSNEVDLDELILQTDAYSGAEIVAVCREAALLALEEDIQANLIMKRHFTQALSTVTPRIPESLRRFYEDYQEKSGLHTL
UniProt P11277, whole entry, looked up: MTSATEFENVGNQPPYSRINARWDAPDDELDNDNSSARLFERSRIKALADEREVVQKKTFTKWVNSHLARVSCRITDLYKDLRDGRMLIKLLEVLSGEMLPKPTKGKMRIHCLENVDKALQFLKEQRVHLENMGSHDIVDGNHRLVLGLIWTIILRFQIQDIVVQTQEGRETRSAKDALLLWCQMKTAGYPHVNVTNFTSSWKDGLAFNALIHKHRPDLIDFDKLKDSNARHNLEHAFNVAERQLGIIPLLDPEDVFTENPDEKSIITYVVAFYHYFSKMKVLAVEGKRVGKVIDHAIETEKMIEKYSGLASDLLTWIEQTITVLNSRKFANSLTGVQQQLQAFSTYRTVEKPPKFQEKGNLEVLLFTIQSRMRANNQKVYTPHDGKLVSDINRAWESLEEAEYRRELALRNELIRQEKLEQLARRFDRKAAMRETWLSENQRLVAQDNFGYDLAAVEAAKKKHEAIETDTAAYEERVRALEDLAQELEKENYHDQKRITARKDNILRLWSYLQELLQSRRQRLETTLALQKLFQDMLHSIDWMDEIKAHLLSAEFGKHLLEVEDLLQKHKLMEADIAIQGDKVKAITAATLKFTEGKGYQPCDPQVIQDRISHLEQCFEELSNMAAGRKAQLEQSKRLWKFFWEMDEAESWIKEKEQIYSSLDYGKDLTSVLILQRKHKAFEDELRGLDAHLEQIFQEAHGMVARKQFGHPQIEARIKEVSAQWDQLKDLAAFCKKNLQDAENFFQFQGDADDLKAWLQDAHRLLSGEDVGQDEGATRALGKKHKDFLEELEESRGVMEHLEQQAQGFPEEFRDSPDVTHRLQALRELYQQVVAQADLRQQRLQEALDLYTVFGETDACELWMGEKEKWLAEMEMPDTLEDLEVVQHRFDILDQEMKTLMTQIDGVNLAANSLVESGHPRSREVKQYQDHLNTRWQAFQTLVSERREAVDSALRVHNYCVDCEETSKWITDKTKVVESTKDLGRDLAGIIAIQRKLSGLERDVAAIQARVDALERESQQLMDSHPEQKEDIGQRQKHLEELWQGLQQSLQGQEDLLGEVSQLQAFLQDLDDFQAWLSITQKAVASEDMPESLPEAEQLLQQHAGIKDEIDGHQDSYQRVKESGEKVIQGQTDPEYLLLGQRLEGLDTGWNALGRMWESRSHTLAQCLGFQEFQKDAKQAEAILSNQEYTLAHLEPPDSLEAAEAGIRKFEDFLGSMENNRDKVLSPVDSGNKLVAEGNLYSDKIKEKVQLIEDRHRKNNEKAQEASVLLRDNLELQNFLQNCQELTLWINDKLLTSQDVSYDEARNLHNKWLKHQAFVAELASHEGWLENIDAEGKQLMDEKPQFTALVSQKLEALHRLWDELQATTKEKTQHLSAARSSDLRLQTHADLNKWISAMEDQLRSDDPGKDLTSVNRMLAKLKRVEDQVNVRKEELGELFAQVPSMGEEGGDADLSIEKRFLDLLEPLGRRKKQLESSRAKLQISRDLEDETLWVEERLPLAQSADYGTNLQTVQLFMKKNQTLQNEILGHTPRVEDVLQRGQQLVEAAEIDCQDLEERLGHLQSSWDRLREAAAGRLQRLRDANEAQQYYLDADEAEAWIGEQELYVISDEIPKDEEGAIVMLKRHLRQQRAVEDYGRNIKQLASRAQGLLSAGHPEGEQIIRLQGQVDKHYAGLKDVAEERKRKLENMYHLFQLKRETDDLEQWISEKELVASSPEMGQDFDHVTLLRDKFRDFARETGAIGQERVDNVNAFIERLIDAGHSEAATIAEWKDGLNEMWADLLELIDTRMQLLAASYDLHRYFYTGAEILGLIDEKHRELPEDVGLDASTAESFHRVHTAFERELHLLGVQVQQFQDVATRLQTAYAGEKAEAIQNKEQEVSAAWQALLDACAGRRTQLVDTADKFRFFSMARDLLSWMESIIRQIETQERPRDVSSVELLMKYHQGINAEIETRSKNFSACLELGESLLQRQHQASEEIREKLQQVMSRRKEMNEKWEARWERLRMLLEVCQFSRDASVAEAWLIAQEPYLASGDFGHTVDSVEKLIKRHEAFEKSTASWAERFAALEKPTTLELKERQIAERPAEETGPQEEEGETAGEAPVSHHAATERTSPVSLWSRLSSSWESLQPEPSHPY
UniProt Q9H2V7: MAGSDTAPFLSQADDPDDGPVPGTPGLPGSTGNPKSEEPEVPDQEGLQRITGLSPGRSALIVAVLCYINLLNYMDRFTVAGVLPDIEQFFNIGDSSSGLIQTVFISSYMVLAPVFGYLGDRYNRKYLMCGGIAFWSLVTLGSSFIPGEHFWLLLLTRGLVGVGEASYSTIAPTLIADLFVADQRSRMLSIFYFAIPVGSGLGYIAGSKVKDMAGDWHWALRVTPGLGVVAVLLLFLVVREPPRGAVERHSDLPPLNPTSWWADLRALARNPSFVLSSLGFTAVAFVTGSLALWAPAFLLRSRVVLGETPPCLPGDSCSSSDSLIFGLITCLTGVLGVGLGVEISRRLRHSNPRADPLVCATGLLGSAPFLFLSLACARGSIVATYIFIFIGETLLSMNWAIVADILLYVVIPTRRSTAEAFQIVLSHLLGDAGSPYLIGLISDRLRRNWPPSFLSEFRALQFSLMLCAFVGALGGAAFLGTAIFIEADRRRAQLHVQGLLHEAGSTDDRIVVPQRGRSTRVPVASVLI
UniProt P61009: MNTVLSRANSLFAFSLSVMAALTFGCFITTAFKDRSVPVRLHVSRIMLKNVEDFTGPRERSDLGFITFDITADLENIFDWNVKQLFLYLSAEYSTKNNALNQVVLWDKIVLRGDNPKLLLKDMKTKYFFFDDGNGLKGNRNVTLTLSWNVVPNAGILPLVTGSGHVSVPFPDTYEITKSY
UniProt Q9NRC1: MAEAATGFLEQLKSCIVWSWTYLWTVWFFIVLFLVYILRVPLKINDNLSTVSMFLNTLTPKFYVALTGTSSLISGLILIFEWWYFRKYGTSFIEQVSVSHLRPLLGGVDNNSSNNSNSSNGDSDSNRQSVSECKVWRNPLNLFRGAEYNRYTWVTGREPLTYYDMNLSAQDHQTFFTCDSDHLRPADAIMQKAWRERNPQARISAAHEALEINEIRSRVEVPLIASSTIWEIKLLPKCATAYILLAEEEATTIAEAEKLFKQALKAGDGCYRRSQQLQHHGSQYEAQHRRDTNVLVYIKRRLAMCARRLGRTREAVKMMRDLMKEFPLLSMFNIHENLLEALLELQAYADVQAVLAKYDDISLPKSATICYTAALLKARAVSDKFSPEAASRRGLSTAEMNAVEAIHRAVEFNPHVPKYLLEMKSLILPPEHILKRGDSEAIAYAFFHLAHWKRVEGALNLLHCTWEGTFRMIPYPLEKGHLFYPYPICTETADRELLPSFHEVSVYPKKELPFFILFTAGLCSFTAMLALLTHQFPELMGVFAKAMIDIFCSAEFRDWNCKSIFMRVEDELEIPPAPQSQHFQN
UniProt Q9Y657, whole entry, looked up: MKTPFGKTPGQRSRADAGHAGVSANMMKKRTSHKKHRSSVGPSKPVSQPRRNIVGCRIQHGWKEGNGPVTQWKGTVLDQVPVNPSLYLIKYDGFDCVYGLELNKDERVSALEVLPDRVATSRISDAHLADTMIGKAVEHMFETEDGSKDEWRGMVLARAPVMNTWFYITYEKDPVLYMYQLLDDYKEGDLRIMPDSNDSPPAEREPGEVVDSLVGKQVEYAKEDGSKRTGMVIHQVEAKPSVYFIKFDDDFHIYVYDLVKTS

Compound: Cc1cn(-c2cc(NC(=O)c3ccc(C)c(Nc4nccc(-c5cccnc5)n4)c3)cc(C(F)(F)F)c2)cn1 [nilotinib]
Assay: log2 fold change, soluble protein after heating vs DMSO (PISA); higher = thermal stabilisation; K562 cells, 10 uM, 30 min; active = over 0.2 and 3.5 SD of the protein, either way, in both replicates (recomputed)
How it was run: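 Thermal stability values are relative to control samples and come from duplicates. They are expressed as log2 fold changes. For measurement, K562 cells (2×10^6 cells/mL) received 10 μM compound for 30 min, and aliquots were heated for 3 min over 48°C-58°C, pooled, and extracted at 4°C in PBS with 0.5% NP-40. Soluble protein, the supernatant after 21,000xg for 90 min, was quantified by TMTpro 16plex LC-MS/MS with equalised channel sums.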

log2 fold change, inactive:
SSBP1 (UniProt Q04837) -0.008
STAMBP (UniProt O95630) -0.033
SPC25 (UniProt Q9HBM1) -0.063
SRRM1 (UniProt Q8IYB3) 0.006
SSR1 (UniProt P43307) -0.02
SRRT (UniProt Q9BXP5) -0.129
STK11 (UniProt Q15831) 0.071
SPTA1 (UniProt P02549) -0.04
SPTAN1 isoform 2 (UniProt Q13813) 0.053
SRP9 (UniProt P49458) 0.003
SPN (UniProt P16150) 0.056
SPTLC2 (UniProt O15270) 0.067
SRGN (UniProt P10124) 0.252
SRPK1 (UniProt Q96SB4) -0.02
SPG7 (UniProt Q9UQ90) -0.012
SRP19 (UniProt P09132) 0.071
SPRY4 (UniProt Q9C004) 0.053
SPC24 (UniProt Q8NBT2) 0
STAU1 (UniProt O95793) -0.041
SRP14 (UniProt P37108) -0.003
SRSF5 (UniProt Q13243) 0.024
SRM (UniProt P19623) 0.042
STIP1 isoform 2 (UniProt P31948) -0.014
SPATA5 (UniProt Q8NB90) -0.011
STAG2 (UniProt Q8N3U4) 0.024
SQLE (UniProt Q14534) 0.068
SPARC (UniProt P09486) 0.143
SPTB isoform 2 (UniProt P11277) -0.185
STAM (UniProt Q92783) 0.037
SSNA1 (UniProt O43805) -0.009
SPNS1 (UniProt Q9H2V7) -0.043
SPCS3 (UniProt P61009) 0.027
SPRYD7 (UniProt Q5W111) 0.016
ST7 (UniProt Q9NRC1) -0.022
SPTBN2 (UniProt O15020) 0.063
SPIN1 (UniProt Q9Y657) 0.023
SPCS1, A0A5F9YFS9 -0.025
ST13 (UniProt P50502) -0.021

Already shown: an excerpt of the list.
log2 fold change, inactive:
SPIN1 (UniProt Q9Y657) 0.023
SPCS1, A0A5F9YFS9 -0.025
